# The supplement of paper PMC8728848
# This is one part of the list.
# Columns and labels:
# Assay in all cases: glycan array binding signal (z-score within array); higher = stronger binding
# Details in all cases: glycan notation: IUPAC condensed, linker removed
# [1] = target: Fuc(a1-2)Gal6S(b1-3)GlcNAc
# Outline: (§1)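 Arrays were curated from the Consortium for Functional Glycomics database, 3228 in total, and kept only where the protein sequence was available. Binding is expressed as a within-array Z-score. This score was averaged across arrays of the same protein sequence at different concentrations or buffers and across linkers, and negative values can be read as non-binding.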
# [2] = target: Fuc(a1-2)Gal6S(b1-3)GlcNAc6S
# Outline: as §1
# Fuc(a1-2)Gal6S(b1-4)Glc = target: Fuc(a1-2)Gal6S(b1-4)Glc
# Outline: as §1
# [3] = target: Fuc(a1-2)Gal6S(b1-4)Glc6S
# Outline: as §1
# Fuc(a1-2)[Gal(a1-3)]Gal = target: Fuc(a1-2)[Gal(a1-3)]Gal
# Outline: as §1
# [4] = target: Fuc(a1-2)[Gal(a1-3)]Gal(b1-3)GalNAc
# Outline: as §1
# [5] = target: Fuc(a1-2)[Gal(a1-3)]Gal(b1-3)GalNAc(b1-3)Gal(a1-4)Gal(b1-4)Glc
# Outline: as §1
# [6] = target: Fuc(a1-2)[Gal(a1-3)]Gal(b1-3)GlcNAc
# Outline: as §1
# [7] = target: Fuc(a1-2)[Gal(a1-3)]Gal(b1-3)GlcNAc(b1-2)Man(a1-3)[Fuc(a1-2)[Gal(a1-3)]Gal(b1-3)GlcNAc(b1-2)Man(a1-6)]Man(b1-4)GlcNAc(b1-4)GlcNAc
# Outline: as §1
# [8] = target: Fuc(a1-2)[Gal(a1-3)]Gal(b1-3)GlcNAc(b1-2)Man(a1-3)[Fuc(a1-2)[Gal(a1-3)]Gal(b1-3)GlcNAc(b1-2)Man(a1-6)]Man(b1-4)GlcNAc(b1-4)[Fuc(a1-6)]GlcNAc
# Outline: as §1
# [9] = target: Fuc(a1-2)[Gal(a1-3)]Gal(b1-3)GlcNAc(b1-3)GalNAc
# Outline: as §1
# [10] = target: Fuc(a1-2)[Gal(a1-3)]Gal(b1-3)GlcNAc(b1-6)GalNAc
# Outline: as §1
# [11] = target: Fuc(a1-2)[Gal(a1-3)]Gal(b1-4)Glc
# Outline: as §1
# [12] = target: Fuc(a1-2)[Gal(a1-3)]Gal(b1-4)GlcNAc
# Outline: as §1
# [13] = target: Fuc(a1-2)[Gal(a1-3)]Gal(b1-4)GlcNAc(b1-2)Man
# Outline: as §1
# [14] = target: Fuc(a1-2)[Gal(a1-3)]Gal(b1-4)GlcNAc(b1-2)Man(a1-3)[Fuc(a1-2)[Gal(a1-3)]Gal(b1-4)GlcNAc(b1-2)Man(a1-6)]Man(b1-4)GlcNAc(b1-4)GlcNAc
# Outline: as §1
# [15] = target: Fuc(a1-2)[Gal(a1-3)]Gal(b1-4)GlcNAc(b1-2)Man(a1-3)[Fuc(a1-2)[Gal(a1-3)]Gal(b1-4)GlcNAc(b1-2)Man(a1-6)]Man(b1-4)GlcNAc(b1-4)[Fuc(a1-6)]GlcNAc
# Outline: as §1
# [16] = target: Fuc(a1-2)[Gal(a1-3)]Gal(b1-4)GlcNAc(b1-3)GalNAc
# Outline: as §1
# [17] = target: Fuc(a1-2)[Gal(a1-3)]Gal(b1-4)GlcNAc(b1-3)[Fuc(a1-2)[Gal(a1-3)]Gal(b1-4)GlcNAc(b1-6)]GalNAc
# Outline: as §1
# [18] = target: Fuc(a1-2)[Gal(a1-3)]Gal(b1-4)GlcNAc(b1-6)GalNAc
# Outline: as §1
# [19] = target: Fuc(a1-2)[Gal(a1-3)]Gal(b1-4)[Fuc(a1-3)]Glc
# Outline: as §1
# [20] = target: Fuc(a1-2)[Gal(a1-3)]Gal(b1-4)[Fuc(a1-3)]GlcNAc
# Outline: as §1
# [21] = target: Fuc(a1-2)[Gal(a1-3)]Gal(b1-4)[Fuc(a1-3)]GlcNAc(b1-3)GalNAc
# Outline: as §1
# [22] = target: Fuc(a1-2)[Gal(a1-4)]Gal(b1-4)GlcNAc
# Outline: as §1
# [23] = target: Fuc(a1-2)[GalNAc(a1-3)]Gal
# Outline: as §1
# [24] = target: Fuc(a1-2)[GalNAc(a1-3)]Gal(b1-3)GalNAc(a1-3)[Fuc(a1-2)]Gal(b1-4)GlcNAc
# Outline: as §1
# [25] = target: Fuc(a1-2)[GalNAc(a1-3)]Gal(b1-3)GalNAc(b1-3)Gal(a1-4)Gal(b1-4)Glc
# Outline: as §1
# [26] = target: Fuc(a1-2)[GalNAc(a1-3)]Gal(b1-3)GlcNAc
# Outline: as §1
# [27] = target: Fuc(a1-2)[GalNAc(a1-3)]Gal(b1-3)GlcNAc(b1-2)Man(a1-3)[Fuc(a1-2)[GalNAc(a1-3)]Gal(b1-3)GlcNAc(b1-2)Man(a1-6)]Man(b1-4)GlcNAc(b1-4)GlcNAc
# Outline: as §1
# [28] = target: Fuc(a1-2)[GalNAc(a1-3)]Gal(b1-3)GlcNAc(b1-2)Man(a1-3)[Fuc(a1-2)[GalNAc(a1-3)]Gal(b1-3)GlcNAc(b1-2)Man(a1-6)]Man(b1-4)GlcNAc(b1-4)[Fuc(a1-6)]GlcNAc
# Outline: as §1
# [29] = target: Fuc(a1-2)[GalNAc(a1-3)]Gal(b1-3)GlcNAc(b1-3)GalNAc
# Outline: as §1
# [30] = target: Fuc(a1-2)[GalNAc(a1-3)]Gal(b1-3)GlcNAc(b1-6)GalNAc
# Outline: as §1
# [31] = target: Fuc(a1-2)[GalNAc(a1-3)]Gal(b1-4)Glc
# Outline: as §1
# [32] = target: Fuc(a1-2)[GalNAc(a1-3)]Gal(b1-4)GlcNAc
# Outline: as §1
# [33] = target: Fuc(a1-2)[GalNAc(a1-3)]Gal(b1-4)GlcNAc(b1-2)Man
# Outline: as §1
# [34] = target: Fuc(a1-2)[GalNAc(a1-3)]Gal(b1-4)GlcNAc(b1-2)Man(a1-3)[Fuc(a1-2)[GalNAc(a1-3)]Gal(b1-4)GlcNAc(b1-2)Man(a1-6)]Man(b1-4)GlcNAc(b1-4)GlcNAc
# Outline: as §1
# [35] = target: Fuc(a1-2)[GalNAc(a1-3)]Gal(b1-4)GlcNAc(b1-2)Man(a1-3)[Fuc(a1-2)[GalNAc(a1-3)]Gal(b1-4)GlcNAc(b1-2)Man(a1-6)]Man(b1-4)GlcNAc(b1-4)[Fuc(a1-6)]GlcNAc
# Outline: as §1
# [36] = target: Fuc(a1-2)[GalNAc(a1-3)]Gal(b1-4)GlcNAc(b1-3)Gal(b1-4)GlcNAc
# Outline: as §1
# [37] = target: Fuc(a1-2)[GalNAc(a1-3)]Gal(b1-4)GlcNAc(b1-3)Gal(b1-4)GlcNAc(b1-3)Gal(b1-4)GlcNAc
# Outline: as §1
# [38] = target: Fuc(a1-2)[GalNAc(a1-3)]Gal(b1-4)GlcNAc(b1-3)GalNAc
# Outline: as §1
# [39] = target: Fuc(a1-2)[GalNAc(a1-3)]Gal(b1-4)GlcNAc(b1-3)[Fuc(a1-2)[GalNAc(a1-3)]Gal(b1-4)GlcNAc(b1-6)]GalNAc
# Outline: as §1
# [40] = target: Fuc(a1-2)[GalNAc(a1-3)]Gal(b1-4)GlcNAc(b1-6)GalNAc
# Outline: as §1
# [41] = target: Fuc(a1-2)[GalNAc(a1-3)]Gal(b1-4)[Fuc(a1-3)]GlcNAc
# Outline: as §1
# [42] = target: Fuc(a1-2)[GalNAc(a1-3)]Gal(b1-4)[Fuc(a1-3)]GlcNAc(b1-3)GalNAc
# Outline: as §1
# [43] = target: Fuc(a1-2)[GalNAc(a1-4)]Gal(b1-4)GlcNAc
# Outline: as §1
binder,measurement,setting,value
"AT3G44510(29) (Arabidopsis thaliana), F4J341 (protein) MEEHLQGRIKLHDGRYLAYKERGVPKDDAKFTIVLVHGFGSSKDMNFNVSQELVNEIGIYFVLYDRAGYGESDPNPKRSLKSEAYDVQELADGLEIGSRFYLIGISMGSYTVWSCLKHIPQRLAGVAMVAPVVNFRWPSIPKSLMPKDYRREVAKWSVWIANYFPGLLQWLVTQNMFSTTSMLEKNPVYFNDQDIEVLKHIKGFPMLTKEKLRERGVFGTLRSDFLVAFGDWDFDPADLPDPSLSGPEKGSSSVHIWQGYEDKVMPFQLQRCLCRKLPWIRYHEVPKGGHLIVHYDGICDAILKSLLLGEDLPMYKPKAVITEPA",glycan array binding signal (z-score),[1],-0.767
same,glycan array binding signal (z-score),[2],-0.478
same,glycan array binding signal (z-score),Fuc(a1-2)Gal6S(b1-4)Glc,1.32
same,glycan array binding signal (z-score),[3],0.18
same,glycan array binding signal (z-score),Fuc(a1-2)[Gal(a1-3)]Gal,2.08
same,glycan array binding signal (z-score),[4],-0.424
same,glycan array binding signal (z-score),[5],0.144
same,glycan array binding signal (z-score),[6],-0.13
same,glycan array binding signal (z-score),[7],0.699
same,glycan array binding signal (z-score),[8],-0.337
same,glycan array binding signal (z-score),[9],-0.895
same,glycan array binding signal (z-score),[10],0.353
same,glycan array binding signal (z-score),[11],0.58
same,glycan array binding signal (z-score),[12],-0.253
same,glycan array binding signal (z-score),[13],0.038
same,glycan array binding signal (z-score),[14],-0.31
same,glycan array binding signal (z-score),[15],-0.079
same,glycan array binding signal (z-score),[16],-0.202
same,glycan array binding signal (z-score),[17],0.073
same,glycan array binding signal (z-score),[18],0.587
same,glycan array binding signal (z-score),[19],-0.186
same,glycan array binding signal (z-score),[20],0.02
same,glycan array binding signal (z-score),[21],-0.516
same,glycan array binding signal (z-score),[22],0.172
same,glycan array binding signal (z-score),[23],-0.164
same,glycan array binding signal (z-score),[24],0.439
same,glycan array binding signal (z-score),[25],-0.123
same,glycan array binding signal (z-score),[26],-0.091
same,glycan array binding signal (z-score),[27],-0.304
same,glycan array binding signal (z-score),[28],-0.313
same,glycan array binding signal (z-score),[29],-0.739
same,glycan array binding signal (z-score),[30],0.219
same,glycan array binding signal (z-score),[31],-0.229
same,glycan array binding signal (z-score),[32],-0.277
same,glycan array binding signal (z-score),[33],-0.106
same,glycan array binding signal (z-score),[34],-0.936
same,glycan array binding signal (z-score),[35],-0.273
same,glycan array binding signal (z-score),[36],-0.137
same,glycan array binding signal (z-score),[37],-0.339
same,glycan array binding signal (z-score),[38],-0.566
same,glycan array binding signal (z-score),[39],-0.622
same,glycan array binding signal (z-score),[40],-0.284
same,glycan array binding signal (z-score),[41],-0.818
same,glycan array binding signal (z-score),[42],6.03
same,glycan array binding signal (z-score),[43],-0.7

# Exported with bars between the fields: entries from further up.
binder | measurement | setting | value
AT3G44510(29) (Arabidopsis thaliana), F4J341 (protein) MEEHLQGRIKLHDGRYLAYKERGVPKDDAKFTIVLVHGFGSSKDMNFNVSQELVNEIGIYFVLYDRAGYGESDPNPKRSLKSEAYDVQELADGLEIGSRFYLIGISMGSYTVWSCLKHIPQRLAGVAMVAPVVNFRWPSIPKSLMPKDYRREVAKWSVWIANYFPGLLQWLVTQNMFSTTSMLEKNPVYFNDQDIEVLKHIKGFPMLTKEKLRERGVFGTLRSDFLVAFGDWDFDPADLPDPSLSGPEKGSSSVHIWQGYEDKVMPFQLQRCLCRKLPWIRYHEVPKGGHLIVHYDGICDAILKSLLLGEDLPMYKPKAVITEPA | glycan array binding signal (z-score) | [14] | -0.31
same | glycan array binding signal (z-score) | [15] | -0.079
same | glycan array binding signal (z-score) | [16] | -0.202
same | glycan array binding signal (z-score) | [17] | 0.073
same | glycan array binding signal (z-score) | [18] | 0.587
same | glycan array binding signal (z-score) | [19] | -0.186
same | glycan array binding signal (z-score) | [20] | 0.02
same | glycan array binding signal (z-score) | [21] | -0.516
same | glycan array binding signal (z-score) | [22] | 0.172
same | glycan array binding signal (z-score) | [23] | -0.164
same | glycan array binding signal (z-score) | [24] | 0.439
same | glycan array binding signal (z-score) | [25] | -0.123
same | glycan array binding signal (z-score) | [26] | -0.091
